Source: patent US4863748A, “Dietary products and uses comprising methylsulfonylmethane” (priority 1986, dated 1989)
The name of at least one read-out is uncertain.

Experiment: Tolerance and toxicity on ingestion
Format: in vivo, animals
Conditions: 1-2 grams/kg body wt. daily
Text: The methylsulfonylmethane is usually provided in the aninmal's normal feed rations, periodically throughout the day or on successive days, or both, e.g., for 2 to 21 days or even longer. The daily food ration appropriate for the animal being fed is supplemented with an amount of methylsulfonylmethane calculated to correspond to a predetermined amount per total body weight of the animals being fed. The exact amount of methylsulfonylmethane ingested each day is not always critical, particularly when methylsulfonylmethane administration is over an extended period of days, because the ingested methylsulfonylmethane accumulates in the body tissues and fluids, i.e., reaches an effective titer. Methylsulfonylmethane-supplemented rations providing levels of as low as 0.5-1 mg/kg animal body weight are sometimes effective and levels as high as 300 mg/kg body weight or more are well tolerated. The usual target level per individual animal is about 0.2-2.0 mg/kg body weight preferably 0.5-1.0 mg per kg body weight. Total daily supplements corresponding to up to about 1 gm/kg body weight or more, are preferably employed, depending on the degree of deficiency. Healthy animals often have methylsulfonylmethane blood levels of at least 1 ppm, and desirably, enough methylsulfonylmethane is provided to raise blood levels to above 1 ppm. […]

CS(C)(=O)=O [methylsulfonylmethane]
safely tolerated blood level: about 4000 ppm
